Assay results from publication PMC3902906.

Target: CsoR (CsoRSl) wild type (Streptomyces lividans 1326) (UniProt D6EK73)
Assay: ITC
Conditions: apo; ITC: 10 mM HEPES, 150 mM NaCl, pH 7.5, 25 C, 100 uM DNA into 10 uM CsoR tetramer; recombinant protein

Binding result, no binding:
CGGACAAATTCCCCTGGTGGGAATATATGG (double strand) [csoR-T swap], CGGACAAAAACCCCTGGTGGGTTTATATGG (double strand) [csoR-A swap], CGGACAAATACCCCTGG (double strand) [csoR-half site], CGGACAAATAGCCCTGGTGGCTATATATGG (double strand) [csoR-G swap]

The exact form of at least one protein or probe is not confirmed. A negative result means that nothing was seen under these conditions.
